Results are given in words; binding and its absence hold for the method and conditions named. In cells and extracts the contact can be indirect. These calls come from enrichment with a bait or labelling near it, and not all partners need be listed.

Sequences of proteins named here, by UniProt entry; tags and fusion partners are left off.
UniProt O60318: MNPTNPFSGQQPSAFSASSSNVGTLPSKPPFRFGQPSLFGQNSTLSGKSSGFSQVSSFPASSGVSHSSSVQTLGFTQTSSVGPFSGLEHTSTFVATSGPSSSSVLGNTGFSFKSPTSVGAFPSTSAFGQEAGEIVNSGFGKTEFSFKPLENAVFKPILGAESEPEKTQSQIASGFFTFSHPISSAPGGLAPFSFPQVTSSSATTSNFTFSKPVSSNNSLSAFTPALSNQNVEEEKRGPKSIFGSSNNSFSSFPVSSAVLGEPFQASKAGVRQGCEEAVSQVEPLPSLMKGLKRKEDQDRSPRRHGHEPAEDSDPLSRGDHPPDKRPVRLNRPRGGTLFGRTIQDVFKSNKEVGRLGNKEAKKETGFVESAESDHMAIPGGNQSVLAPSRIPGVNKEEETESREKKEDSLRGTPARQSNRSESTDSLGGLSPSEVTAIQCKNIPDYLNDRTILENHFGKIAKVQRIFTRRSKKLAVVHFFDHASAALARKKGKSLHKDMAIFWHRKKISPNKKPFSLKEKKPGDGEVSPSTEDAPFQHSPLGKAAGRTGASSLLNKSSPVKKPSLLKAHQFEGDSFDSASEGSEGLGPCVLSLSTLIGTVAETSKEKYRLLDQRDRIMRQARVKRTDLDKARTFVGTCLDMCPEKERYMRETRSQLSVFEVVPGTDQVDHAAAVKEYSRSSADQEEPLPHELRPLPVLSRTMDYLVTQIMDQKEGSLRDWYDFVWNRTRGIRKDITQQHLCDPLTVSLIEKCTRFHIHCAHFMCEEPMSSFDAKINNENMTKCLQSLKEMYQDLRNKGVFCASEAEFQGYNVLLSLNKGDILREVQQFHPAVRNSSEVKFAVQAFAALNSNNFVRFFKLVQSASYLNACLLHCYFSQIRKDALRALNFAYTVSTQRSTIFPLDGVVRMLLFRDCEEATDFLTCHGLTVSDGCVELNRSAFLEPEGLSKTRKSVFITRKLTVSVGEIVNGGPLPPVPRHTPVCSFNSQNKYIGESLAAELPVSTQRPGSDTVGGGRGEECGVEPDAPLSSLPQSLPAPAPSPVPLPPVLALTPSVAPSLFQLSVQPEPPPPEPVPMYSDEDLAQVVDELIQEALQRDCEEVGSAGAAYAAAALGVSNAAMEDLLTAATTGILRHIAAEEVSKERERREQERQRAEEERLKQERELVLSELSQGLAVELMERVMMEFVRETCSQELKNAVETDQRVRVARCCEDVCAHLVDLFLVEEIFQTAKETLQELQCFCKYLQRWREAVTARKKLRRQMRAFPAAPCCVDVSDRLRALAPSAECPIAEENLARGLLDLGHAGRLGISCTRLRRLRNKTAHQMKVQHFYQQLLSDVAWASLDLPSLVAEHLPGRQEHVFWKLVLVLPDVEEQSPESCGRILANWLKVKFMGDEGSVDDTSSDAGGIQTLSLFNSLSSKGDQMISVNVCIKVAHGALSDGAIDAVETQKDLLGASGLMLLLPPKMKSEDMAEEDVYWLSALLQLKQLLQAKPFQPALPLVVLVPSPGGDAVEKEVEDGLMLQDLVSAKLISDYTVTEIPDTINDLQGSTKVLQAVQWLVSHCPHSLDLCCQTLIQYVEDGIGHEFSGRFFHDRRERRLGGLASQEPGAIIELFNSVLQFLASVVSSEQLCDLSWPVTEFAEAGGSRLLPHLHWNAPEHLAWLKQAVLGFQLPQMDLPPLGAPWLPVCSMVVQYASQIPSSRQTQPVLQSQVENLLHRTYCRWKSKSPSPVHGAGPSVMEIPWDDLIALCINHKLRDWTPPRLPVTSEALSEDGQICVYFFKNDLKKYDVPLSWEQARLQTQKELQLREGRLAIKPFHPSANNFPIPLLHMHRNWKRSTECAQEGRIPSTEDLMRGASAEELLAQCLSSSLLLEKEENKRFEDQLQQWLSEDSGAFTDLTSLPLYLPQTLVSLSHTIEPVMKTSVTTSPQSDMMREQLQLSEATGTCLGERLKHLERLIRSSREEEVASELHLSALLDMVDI
UniProt P12270: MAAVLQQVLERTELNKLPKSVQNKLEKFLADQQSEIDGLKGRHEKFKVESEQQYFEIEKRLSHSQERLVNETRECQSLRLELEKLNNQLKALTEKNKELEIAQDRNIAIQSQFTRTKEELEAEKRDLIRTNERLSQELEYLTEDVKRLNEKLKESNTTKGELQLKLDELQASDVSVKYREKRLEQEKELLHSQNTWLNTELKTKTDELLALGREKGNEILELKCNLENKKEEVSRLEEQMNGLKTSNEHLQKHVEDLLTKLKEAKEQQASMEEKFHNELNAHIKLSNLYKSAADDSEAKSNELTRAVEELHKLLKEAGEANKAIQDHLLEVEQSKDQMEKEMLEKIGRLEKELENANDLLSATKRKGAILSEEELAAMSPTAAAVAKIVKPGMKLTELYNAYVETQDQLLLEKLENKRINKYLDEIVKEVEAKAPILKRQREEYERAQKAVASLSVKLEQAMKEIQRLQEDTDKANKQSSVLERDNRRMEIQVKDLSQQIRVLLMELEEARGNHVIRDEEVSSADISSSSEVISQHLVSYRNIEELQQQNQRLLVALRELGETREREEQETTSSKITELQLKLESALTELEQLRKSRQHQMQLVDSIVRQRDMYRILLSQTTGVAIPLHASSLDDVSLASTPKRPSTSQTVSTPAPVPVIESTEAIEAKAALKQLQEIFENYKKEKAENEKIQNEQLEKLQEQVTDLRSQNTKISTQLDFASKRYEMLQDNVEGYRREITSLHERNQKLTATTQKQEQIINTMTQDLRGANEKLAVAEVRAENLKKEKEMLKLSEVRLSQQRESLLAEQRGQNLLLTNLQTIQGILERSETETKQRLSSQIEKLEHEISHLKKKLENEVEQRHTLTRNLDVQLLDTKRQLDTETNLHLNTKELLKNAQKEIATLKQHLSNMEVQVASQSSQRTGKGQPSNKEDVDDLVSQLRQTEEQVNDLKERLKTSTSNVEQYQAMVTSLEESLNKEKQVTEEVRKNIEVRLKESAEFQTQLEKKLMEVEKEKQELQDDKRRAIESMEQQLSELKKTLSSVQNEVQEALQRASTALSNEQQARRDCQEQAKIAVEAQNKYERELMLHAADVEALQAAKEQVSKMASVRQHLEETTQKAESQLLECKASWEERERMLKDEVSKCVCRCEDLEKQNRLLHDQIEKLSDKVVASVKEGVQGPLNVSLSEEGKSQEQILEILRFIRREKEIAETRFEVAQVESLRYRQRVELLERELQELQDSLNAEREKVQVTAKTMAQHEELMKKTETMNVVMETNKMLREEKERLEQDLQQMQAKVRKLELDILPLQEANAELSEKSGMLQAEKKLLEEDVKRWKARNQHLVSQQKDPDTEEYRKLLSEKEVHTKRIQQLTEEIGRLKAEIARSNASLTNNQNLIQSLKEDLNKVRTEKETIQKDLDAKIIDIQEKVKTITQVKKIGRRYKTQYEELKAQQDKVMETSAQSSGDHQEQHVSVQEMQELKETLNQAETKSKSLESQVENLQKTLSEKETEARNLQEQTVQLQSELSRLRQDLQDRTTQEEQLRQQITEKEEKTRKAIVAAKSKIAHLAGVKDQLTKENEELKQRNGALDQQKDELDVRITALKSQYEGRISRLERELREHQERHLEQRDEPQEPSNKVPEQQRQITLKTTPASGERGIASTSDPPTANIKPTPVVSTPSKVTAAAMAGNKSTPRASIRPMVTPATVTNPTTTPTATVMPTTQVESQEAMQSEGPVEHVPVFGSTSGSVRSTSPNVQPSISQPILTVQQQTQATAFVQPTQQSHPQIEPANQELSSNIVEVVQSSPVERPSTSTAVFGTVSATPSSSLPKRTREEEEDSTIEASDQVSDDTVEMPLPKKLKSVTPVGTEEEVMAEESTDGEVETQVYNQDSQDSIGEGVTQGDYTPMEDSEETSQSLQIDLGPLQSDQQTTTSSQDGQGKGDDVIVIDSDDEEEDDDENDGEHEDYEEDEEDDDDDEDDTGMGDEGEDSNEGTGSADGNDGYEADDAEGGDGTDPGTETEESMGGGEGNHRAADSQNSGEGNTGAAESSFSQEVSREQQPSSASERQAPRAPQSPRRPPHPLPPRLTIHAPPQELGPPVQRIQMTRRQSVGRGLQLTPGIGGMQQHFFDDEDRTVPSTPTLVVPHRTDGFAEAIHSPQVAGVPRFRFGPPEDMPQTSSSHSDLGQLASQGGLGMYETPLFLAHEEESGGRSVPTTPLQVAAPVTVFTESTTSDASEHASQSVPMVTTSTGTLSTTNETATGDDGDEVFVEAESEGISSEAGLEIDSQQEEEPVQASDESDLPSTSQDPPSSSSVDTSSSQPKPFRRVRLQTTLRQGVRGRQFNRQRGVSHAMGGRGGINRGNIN

The target in this experiment is GANP–3×Flag (endogenously tagged) (human (endogenous in HeLa)) (UniProt O60318). Briefly: affinity purification with mass spectrometry; anti-Flag IP from extracts of HeLa cells with endogenously 3×Flag-tagged GANP, LENG8 or PCID2; high stringency (washes with 450 mM NaCl); with or without Pierce universal nuclease; label-free, triplicates, against maternal HeLa.

Turning to “TPR (endogenous nuclear pore basket protein) (from UniProt P12270 1-2363)”, the binding result was “binds”.

The values are drawn from publication PMC13391367.
